Data: patent US20200323203A1, “SYNERGISTIC PESTICIDAL COMPOSITIONS AND METHODS FOR DELIVERY OF ACTIVE INGREDIENTS” (0903608 B.C. Ltd., priority 2017, published 2020)
Values joined by “and” are separate entries in the source; they are usually repeats but may differ in a detail not shown here. Equal values may be shown once. The name of at least one read-out is uncertain.

Key:
Assay type in all cases: cell-based
Botrytis cinerea = test: Synergistic Growth Inhibition Assay (MIC / FIC index), Botrytis cinerea; settings: individual compound alone; incubation period of 48 hours
Method: (§1) In some embodiments, the synergistic action between the pesticidal active ingredient, and the at least one C6-C10 (or alternatively C11 or C12) saturated or unsaturated aliphatic acid components of the pesticidal compositions according to embodiments of the present disclosure was tested using a Synergistic Growth Inhibition Assay, which is derived from and related to a checkerboard assay as is known in the art for testing of combinations of antimicrobial agents. […] Thus, each well of the microtiter plate is a unique combination of the two agents, at which inhibitory efficacy of the combination against the target pest or pathogen can be determined.
(§2) In one embodiment according to the present disclosure, for each row of microtiter cells in the Synergistic Growth Inhibition Assay, the FIC index is calculated from the lowest concentration of the pesticidal active ingredient and one or more C6-C10 saturated or unsaturated aliphatic acid agents necessary to inhibit growth of a target pest or pathogen. […] The FIC index is calculated for each row as follows: […]

Fusarium oxysporum = test: Synergistic Growth Inhibition Assay (MIC / FIC index), Fusarium oxysporum; settings: individual compound alone; 24 hour incubation
Method: as §1, §2

Sclerotinia sclerotiorum = test: Synergistic Growth Inhibition Assay (MIC / FIC index), Sclerotinia sclerotiorum; settings: individual compound alone; incubation period of 7 days
Method: as §1, §2

CCCCCC(=O)O [Hexanoic acid, hexanoic acid]
MIC (A) / MIC (B) of the compound used alone (Botrytis cinerea): 78.12 µg/mL and 156.2 µg/mL | MIC (A) / MIC (B) of the compound used alone (Fusarium oxysporum): 290 µg/mL | MIC (A) / MIC (B) of the compound used alone (Sclerotinia sclerotiorum): 39.06 µg/mL and 78.12 µg/mL

N#Cc1c[nH]cc1-c1cccc2c1OC(F)(F)O2 [Fludioxonil, fludioxonil, reference compound]
MIC (A) / MIC (B) of the compound used alone (Fusarium oxysporum): 0.24063 µg/mL and 0.48125 µg/mL
